Source: paper PMC10477884
Results are given in words; binding and its absence hold for the method and conditions named. Binding seen in cells or lysates may run through a third protein. Some results given as binding are weak or reduced against the parent protein; the word gives no strength.

Amino acid sequences for entries named in this document (tags omitted).
UniProt P08670: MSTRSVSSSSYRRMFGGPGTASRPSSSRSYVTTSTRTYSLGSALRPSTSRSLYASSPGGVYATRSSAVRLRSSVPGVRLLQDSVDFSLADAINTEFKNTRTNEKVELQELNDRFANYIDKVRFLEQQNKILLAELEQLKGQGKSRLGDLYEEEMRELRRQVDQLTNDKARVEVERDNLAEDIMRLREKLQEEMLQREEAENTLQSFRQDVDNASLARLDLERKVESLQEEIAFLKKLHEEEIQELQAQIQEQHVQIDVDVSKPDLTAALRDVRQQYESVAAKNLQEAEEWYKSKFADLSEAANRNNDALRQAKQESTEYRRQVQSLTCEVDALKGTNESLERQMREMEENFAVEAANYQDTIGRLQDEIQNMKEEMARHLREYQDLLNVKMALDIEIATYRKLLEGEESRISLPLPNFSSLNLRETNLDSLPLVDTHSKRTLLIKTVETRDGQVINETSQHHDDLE
UniProt O95251: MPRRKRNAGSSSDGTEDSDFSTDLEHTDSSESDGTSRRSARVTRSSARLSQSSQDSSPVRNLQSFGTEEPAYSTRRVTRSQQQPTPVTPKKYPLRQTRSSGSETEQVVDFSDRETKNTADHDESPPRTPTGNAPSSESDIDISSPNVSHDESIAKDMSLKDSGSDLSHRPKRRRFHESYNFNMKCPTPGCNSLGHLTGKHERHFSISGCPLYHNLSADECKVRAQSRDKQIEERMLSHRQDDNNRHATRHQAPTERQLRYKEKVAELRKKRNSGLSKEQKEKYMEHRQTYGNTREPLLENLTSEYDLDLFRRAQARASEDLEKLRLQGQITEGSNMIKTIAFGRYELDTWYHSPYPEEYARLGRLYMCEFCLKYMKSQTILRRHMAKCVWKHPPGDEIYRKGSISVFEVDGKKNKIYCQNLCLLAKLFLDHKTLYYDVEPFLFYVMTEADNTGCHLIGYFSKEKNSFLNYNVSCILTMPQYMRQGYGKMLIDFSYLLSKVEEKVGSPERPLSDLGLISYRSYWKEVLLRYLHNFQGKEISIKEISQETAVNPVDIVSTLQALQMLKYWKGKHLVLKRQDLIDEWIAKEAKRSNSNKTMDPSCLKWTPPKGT

Key:
[1] = target: vimentin (co-IPs whose cells and constructs are not stated) (UniProt P08670); assay: co-IP; vimentin and KAT7, with and without NLRP11; cells not given
[2] = target: vimentin (human (endogenous in A549, H1299)) (UniProt P08670); assay: co-IP; A549 cells overexpressing NLRP11, with or without MCC950
[3] = target: T1, NLRP11, stably overexpressed in A549 cells (UniProt P59045); assay: as above
T1 sequence: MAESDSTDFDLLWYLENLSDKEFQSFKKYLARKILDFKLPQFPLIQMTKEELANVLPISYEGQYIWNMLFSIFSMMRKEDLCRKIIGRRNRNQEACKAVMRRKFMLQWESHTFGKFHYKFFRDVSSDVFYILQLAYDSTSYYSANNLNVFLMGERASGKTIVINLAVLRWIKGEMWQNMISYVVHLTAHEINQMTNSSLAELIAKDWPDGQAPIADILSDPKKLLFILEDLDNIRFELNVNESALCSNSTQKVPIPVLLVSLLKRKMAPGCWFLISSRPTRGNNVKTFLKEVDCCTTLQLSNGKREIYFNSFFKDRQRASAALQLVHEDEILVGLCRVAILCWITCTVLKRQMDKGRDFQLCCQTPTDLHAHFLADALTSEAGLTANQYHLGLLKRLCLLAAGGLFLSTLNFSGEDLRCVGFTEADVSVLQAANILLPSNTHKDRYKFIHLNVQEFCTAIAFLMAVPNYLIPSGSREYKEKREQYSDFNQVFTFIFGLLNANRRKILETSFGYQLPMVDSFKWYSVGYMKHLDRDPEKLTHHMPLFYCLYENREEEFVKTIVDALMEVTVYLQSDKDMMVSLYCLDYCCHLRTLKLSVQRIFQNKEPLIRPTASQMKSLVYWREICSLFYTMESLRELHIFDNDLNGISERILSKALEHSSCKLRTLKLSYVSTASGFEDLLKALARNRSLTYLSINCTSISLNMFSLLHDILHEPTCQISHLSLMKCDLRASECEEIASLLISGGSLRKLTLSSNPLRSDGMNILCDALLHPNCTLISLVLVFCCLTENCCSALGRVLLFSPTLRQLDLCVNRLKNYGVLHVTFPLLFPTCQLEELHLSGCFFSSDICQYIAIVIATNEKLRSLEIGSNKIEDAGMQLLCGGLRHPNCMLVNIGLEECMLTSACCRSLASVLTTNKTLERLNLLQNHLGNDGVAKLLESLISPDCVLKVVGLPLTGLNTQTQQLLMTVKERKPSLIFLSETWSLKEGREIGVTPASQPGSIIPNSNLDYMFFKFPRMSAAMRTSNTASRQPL

[4] = target: T2, NACHT, LRR, and PYD domain‐containing protein 11 (NLRP11) (human (endogenous in A549, H1299)) (UniProt P59045); assay: co-IP; endogenous proteins in A549 and H1299 cells, western blot
T2 sequence: T1 sequence

Row | Substance | binding [1] | binding [2] | binding [3] | binding [4]
1 | lysine acetyltransferase 7 (KAT7) (co-IP whose cells and constructs are not stated) (from UniProt O95251 1-611) (enzyme) | binds | – | – | –
2 | lysine acetyltransferase 7 (KAT7) (from UniProt O95251 1-611) (enzyme) | – | binds | binds | –
3 | vimentin (from UniProt P08670 1-466) | – | – | binds | binds
